Results on 8 molecules are retold here after US20240317865A1, “ANTIBODIES AGAINST INTEGRIN ALPHA 11 BETA 1” (MOMENTA PHARMACEUTICALS, INC., priority 2020, published 2024).

By UniProt entry, the sequences of proteins in these tests, tags left out. Where a name states a change or a piece, a line headed by the entry shows the natural chain unless it says otherwise.
UniProt P17301: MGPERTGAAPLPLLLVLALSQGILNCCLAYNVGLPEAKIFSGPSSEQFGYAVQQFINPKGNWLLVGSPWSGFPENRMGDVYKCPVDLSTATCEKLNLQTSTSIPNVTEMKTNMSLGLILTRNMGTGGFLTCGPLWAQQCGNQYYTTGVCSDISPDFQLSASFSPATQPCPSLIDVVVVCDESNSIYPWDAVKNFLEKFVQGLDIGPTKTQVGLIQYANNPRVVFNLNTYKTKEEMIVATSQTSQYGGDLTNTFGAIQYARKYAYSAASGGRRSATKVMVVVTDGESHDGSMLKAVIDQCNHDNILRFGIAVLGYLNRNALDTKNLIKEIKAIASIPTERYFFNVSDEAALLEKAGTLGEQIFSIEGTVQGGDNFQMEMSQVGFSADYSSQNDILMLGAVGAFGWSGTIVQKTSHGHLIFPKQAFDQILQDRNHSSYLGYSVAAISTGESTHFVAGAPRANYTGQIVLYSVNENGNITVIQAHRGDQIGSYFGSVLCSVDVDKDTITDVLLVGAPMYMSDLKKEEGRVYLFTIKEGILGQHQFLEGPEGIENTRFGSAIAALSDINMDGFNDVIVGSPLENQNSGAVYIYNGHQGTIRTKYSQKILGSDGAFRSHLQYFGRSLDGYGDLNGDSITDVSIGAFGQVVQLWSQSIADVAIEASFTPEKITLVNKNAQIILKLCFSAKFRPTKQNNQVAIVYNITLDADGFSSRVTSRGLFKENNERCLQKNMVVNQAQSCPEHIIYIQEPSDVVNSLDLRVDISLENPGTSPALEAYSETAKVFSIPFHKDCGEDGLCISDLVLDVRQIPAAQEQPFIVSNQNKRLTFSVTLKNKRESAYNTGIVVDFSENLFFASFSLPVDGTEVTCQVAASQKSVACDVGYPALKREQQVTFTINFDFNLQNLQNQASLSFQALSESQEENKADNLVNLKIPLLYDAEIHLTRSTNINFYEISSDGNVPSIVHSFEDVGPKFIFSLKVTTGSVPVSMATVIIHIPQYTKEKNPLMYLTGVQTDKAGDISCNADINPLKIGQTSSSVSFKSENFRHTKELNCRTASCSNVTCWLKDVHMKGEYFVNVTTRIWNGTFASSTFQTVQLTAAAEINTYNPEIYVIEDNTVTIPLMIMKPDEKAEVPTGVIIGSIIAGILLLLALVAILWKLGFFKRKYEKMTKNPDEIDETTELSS
UniProt P05556: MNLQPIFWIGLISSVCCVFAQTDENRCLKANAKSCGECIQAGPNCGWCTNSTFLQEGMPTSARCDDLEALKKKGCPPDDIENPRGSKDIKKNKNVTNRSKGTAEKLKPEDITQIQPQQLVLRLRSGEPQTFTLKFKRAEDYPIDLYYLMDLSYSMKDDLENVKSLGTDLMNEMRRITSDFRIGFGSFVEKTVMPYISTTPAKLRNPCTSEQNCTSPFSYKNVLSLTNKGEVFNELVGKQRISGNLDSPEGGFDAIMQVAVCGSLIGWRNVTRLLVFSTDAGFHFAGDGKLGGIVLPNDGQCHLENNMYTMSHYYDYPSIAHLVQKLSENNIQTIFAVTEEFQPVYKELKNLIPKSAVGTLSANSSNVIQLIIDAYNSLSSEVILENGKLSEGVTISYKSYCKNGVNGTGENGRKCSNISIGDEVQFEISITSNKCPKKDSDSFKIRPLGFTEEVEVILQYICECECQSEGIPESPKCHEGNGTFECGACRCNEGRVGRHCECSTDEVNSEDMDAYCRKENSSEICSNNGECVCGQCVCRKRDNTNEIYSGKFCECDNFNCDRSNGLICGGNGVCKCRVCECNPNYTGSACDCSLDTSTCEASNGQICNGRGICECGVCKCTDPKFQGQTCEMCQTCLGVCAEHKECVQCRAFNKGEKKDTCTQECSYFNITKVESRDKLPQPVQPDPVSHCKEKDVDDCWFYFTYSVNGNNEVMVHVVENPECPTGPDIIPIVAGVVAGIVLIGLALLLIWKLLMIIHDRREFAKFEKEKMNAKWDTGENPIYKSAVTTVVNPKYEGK
UniProt O75578: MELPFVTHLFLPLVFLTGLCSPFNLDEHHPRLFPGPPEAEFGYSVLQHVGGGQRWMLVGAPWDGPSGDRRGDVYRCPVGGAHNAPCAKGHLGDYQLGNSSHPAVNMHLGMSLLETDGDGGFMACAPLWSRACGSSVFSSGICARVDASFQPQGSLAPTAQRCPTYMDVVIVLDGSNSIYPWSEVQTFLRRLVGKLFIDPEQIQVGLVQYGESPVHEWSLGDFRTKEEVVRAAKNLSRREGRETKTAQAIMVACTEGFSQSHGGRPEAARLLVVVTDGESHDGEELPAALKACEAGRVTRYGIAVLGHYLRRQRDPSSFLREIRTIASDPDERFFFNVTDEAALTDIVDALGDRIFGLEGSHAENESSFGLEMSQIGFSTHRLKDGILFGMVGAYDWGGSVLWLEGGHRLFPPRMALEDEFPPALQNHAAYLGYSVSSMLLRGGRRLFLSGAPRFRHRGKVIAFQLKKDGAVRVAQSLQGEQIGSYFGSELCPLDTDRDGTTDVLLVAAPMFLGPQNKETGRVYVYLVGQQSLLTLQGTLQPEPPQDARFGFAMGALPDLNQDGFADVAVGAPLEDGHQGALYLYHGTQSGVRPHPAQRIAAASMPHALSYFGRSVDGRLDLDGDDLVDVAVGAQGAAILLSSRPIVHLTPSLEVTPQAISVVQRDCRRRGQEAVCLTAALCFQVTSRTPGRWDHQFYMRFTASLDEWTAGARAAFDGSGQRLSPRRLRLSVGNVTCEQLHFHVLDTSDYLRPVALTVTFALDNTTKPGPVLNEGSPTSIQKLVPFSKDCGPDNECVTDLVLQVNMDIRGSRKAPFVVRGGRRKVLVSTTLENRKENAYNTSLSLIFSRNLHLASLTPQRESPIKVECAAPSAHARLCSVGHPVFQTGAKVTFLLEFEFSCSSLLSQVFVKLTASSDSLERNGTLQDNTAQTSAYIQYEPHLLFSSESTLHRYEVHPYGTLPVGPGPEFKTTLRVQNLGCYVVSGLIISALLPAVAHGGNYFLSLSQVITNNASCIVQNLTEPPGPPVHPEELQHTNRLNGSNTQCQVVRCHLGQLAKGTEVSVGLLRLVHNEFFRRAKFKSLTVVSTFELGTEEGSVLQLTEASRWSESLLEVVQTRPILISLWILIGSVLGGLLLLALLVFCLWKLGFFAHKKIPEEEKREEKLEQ
UniProt P56199: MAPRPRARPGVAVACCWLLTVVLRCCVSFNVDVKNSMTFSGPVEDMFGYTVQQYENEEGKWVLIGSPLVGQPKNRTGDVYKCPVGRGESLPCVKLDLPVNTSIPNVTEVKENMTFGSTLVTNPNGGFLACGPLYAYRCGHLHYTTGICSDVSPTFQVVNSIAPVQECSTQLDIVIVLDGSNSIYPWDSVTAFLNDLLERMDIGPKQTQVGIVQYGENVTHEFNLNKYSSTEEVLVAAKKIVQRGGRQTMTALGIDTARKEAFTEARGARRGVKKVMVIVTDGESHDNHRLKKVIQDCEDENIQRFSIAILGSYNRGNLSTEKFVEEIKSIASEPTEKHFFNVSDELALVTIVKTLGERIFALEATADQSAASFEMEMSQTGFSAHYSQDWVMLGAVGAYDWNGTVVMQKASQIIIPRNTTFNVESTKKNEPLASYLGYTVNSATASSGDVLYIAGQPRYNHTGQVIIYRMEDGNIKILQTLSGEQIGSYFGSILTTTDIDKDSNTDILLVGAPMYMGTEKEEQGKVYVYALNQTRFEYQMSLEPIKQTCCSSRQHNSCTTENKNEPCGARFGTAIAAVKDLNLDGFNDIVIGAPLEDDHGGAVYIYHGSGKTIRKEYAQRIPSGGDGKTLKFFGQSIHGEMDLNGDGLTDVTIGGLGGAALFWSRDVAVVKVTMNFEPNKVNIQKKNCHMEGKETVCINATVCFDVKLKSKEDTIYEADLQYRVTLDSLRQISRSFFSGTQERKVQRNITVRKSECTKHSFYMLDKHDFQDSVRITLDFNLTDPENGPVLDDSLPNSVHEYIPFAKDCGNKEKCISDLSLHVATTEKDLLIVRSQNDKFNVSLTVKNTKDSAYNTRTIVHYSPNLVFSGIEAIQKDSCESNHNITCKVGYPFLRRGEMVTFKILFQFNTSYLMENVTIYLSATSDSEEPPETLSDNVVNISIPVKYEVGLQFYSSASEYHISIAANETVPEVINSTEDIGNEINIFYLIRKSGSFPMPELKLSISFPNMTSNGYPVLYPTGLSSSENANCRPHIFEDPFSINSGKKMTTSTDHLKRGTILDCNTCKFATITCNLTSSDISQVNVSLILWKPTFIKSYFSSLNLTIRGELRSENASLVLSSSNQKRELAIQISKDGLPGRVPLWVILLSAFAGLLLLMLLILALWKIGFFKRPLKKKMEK
UniProt P09055: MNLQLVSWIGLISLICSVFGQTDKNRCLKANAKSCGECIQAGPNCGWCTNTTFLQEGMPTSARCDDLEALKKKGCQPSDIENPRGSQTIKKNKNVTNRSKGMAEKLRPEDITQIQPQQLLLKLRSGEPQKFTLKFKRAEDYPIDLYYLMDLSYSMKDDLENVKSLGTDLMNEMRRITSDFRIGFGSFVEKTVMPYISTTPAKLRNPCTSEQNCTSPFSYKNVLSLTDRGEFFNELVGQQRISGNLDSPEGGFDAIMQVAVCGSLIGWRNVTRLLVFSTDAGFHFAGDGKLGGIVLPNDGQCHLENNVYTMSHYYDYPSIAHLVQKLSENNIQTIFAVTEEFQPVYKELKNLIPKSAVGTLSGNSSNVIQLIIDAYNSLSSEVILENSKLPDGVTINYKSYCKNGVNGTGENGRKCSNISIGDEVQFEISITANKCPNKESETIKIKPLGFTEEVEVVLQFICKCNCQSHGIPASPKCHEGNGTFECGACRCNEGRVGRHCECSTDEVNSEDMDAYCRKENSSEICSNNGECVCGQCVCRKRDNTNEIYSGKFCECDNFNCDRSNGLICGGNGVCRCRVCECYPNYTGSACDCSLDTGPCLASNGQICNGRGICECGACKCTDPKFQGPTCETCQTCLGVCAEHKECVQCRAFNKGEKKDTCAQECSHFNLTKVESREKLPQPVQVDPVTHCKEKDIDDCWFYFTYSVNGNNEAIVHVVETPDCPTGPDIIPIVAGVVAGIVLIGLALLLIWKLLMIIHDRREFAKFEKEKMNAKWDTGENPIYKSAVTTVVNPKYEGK

Changes are numbered by the printed parent chain. These are yes or no findings as the source states them, for the method shown. Some results given as binding are weak or reduced against the parent protein; the word gives no strength.

The target in experiment [1] is T1, in-house generated I domain of α11β1 (human) (UniProt Q9UKX5).
T1 sequence (looked up): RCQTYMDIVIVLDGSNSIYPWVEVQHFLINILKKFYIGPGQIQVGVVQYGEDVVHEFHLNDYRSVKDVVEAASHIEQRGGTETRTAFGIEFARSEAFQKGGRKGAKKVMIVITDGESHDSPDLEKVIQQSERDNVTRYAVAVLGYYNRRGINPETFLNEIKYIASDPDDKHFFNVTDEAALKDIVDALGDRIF
Nature of the experiment: SPR.

The target of experiment [2] is T1, in-house generated I domain of α11β1 (human). Nature of the experiment: SPR on the a11b1 I Domain, single-cycle injections of 33, 100 and 300 nM; HBSP trace as blank.
For experiment [3] the target is unchanged. Briefly: ELISA, in-house generated I domain. Background: ELISA stands for enzyme-linked immunosorbent assay.
The target is the same in experiment [4]. Briefly: ELISA, α11β1 I domain.
For experiment [5] the target is unchanged. Nature of the experiment: ELISA on the human α11β1 I domain, OD 450nm.
Experiment [6] has as its target T2, human integrin α2β1 (human) (UniProt P17301+P05556). Briefly: counter-screen against other collagen receptors. Background: The purpose of a counterscreen is to sort out artefacts and off-target activity.
Experiment [7] has as its target T3, human integrin α10β1 (human) (UniProt O75578+P05556). Briefly: counter-screen against other collagen receptors.
Experiment [8] addresses T4, human integrin α1β1 (human) (UniProt P56199+P05556). Nature of the experiment: counter-screen against other collagen receptors.
In experiment [9] the target is recombinant human integrin alpha 11 beta 1 (α11β1) (human) (UniProt Q9UKX5+P05556). Nature of the experiment: ELISA, recombinant human α11β1.
Experiment [10] concerns the target T2, human integrin α2β1 (human). Briefly: counter-screen.
Experiment [11] addresses T3, human integrin α10β1 (human). Briefly: counter-screen.
The target of experiment [12] is T4, human integrin α1β1 (human). Briefly: counter-screen.
The target of experiment [13] is recombinant mouse integrin alpha 11 beta 1 (α11β1) (mouse) (UniProt P61622+P09055). Briefly: ELISA, recombinant mouse α11β1.

B1: 79E3E3 (antibody, V domains shown)
VH: QIQLVQSGPEVKKPGESVKISCKASGYTFTDYAMNWVKQAPGNGLKWMGWINTQTGKPTYADDFKQRFVFSLETSARTTYLQINNLNIEDTATYFCTRLGTGNTKGFAYWGQGTLVTVSS
VL: DILINQSPASLTVSAGERVTMSCKSSQSLLYSENNQDYLAWYQQKPGQFPKLLIYGASNRHTGVPDRFTGSGSGTDFTLTISSVQAEDLADYYCEQTYRYPFTFGSGTKLEIK
On to B1, for which the binding entry in experiment [1], in experiment [2], in experiment [3], in [4] and in [5] was “binds” each time.

B2: 10-L15 (antibody, V domains shown)
VH: QVQLQQSGPELVRPGASVKMSCKASGYTFTSYWMHWVKQRPGQGLEWIGMIDPSNSETWLNQKFKDKATLNVDKSSNTAYMQLSSLTSEDSAVYYCARYDGYYDYWGQGTTLTVSS
VL: NIVLTQSPASLAVSLGQRATISCRASESVDSYGNSFMHWYQQKPGQPPKLLIYLASNVESGVPARFSGSGSRTDFTLTIDPVEADDAATYYCQQNNEDPWTFGGGTKLEIK
Consider B2, for which the binding entry in experiment [4] is listed as “binds”.

B3: 10-F23 (antibody, V domains shown)
VH: QVTLKESGPGILQPSQTLSLTCSFSGFSLSTFAMGVGWIRQPSGKGLEWLAHIWWDDDKYYNPALKSRLTISKDTSKNHVFLKIANVDTADTATYYCARMPLTFYFDYWGQGTTLTVSS
VL: DVLLTQTPLSLPVSLGDQASISCRSSQSIVHSNGHTYLEWYLQKPGQSPKLLIYKVSNRFSGVPDRFSGSGSGTDFTLKISRVEAEDLGVYYCFQGSHVPFTFGGGTKLEIK
In the case of B3, the binding result in experiment [4] is recorded as “binds”.

B4: 6-A12 (antibody, V domains shown)
VH: B3 VH with S30R, H79Q
VL: B3 VL with L4M, H35N, N58T
With B4, in experiment [4], the binding entry is reported as “binds”.

B5: 40G10H11 (antibody, V domains shown)
VH: AVQLVESGGGLVQPGRSLKLSCAASRITFTDYYMAWVRQAPTKGLEWVATISSDGGDTFYRDSVKGRFTISRDNAKSTLYLQMVSLRSEDTATYYCSTDRGAQFGYWGQGTLVTVSS
VL: DIQMTQSPSFLSASVGDRVSINCKASQNVHENLNWYQQKLGEAPKRLIYNTNNLQTGIPSRFSGSGSGADYTLTISSLQPEDFATYFCLQHNAFPYTFGPGTKLELK
In the case of B5, the binding entry in experiment [6], in [7], in experiment [8], in experiment [9], in experiment [10] and in experiment [11] was “binds” each time. Moreover, the binding entry in [12] and in experiment [13] was “binds” throughout.

B6: 9-B11 (antibody, V domains shown)
VH: QVQLQQPGAELVRPGTSVKLSCKASGYTFTSYWMHWVQQRPGQGLEWIGVIDPSDSYTNYNQKFKGKATLTVDTSSSSAYMQLSSLTSEDSAVYYCARDDVAMDYWGQGTSVTVSS
VL: DIVVTQSPASLAVSLGQRATISCRASESVDSYGNSFIHWYQQKPGQPPKLLIYRASNLKSGIPARFSGSGSRTDFTLTINPVEADDVATYYCQQSNEDPYTFGGGTKLEIK
Take B6: the binding result in experiment [4] was “binds”.

B7: 9-E16 (antibody, V domains shown)
VH: EVQLQQSGPELVKPGASVKISCKASGYTFTDYYMHWVKQKPGQGLEWIGEIYPGSGNPYYNEKFKGKATLTADKSSSSAYMQLSSLTSEDSAVYFCARTSYGRVGTGFAYWGQGTLVTVSA
VL: NFVMTQTPLSLPVSLGDQASISCRSSQSLLHSNGNTYLHWYLQKPGQSPKLLIYKVSNRFSGVPDRFSGSGSGTDFTLKINRVETEDLGIYFCSQSSHVPTFGAGTKLELK
In the case of B7, the binding result in experiment [4] and in experiment [5] was “binds” throughout.

B8: 9-G05 (antibody, V domains shown)
VH: EVQLQQSGPELVKPGASVKIPCKASGYTFPDYNMDWVKQSHGKSLEWIGYINPDNGGTIYNQKFKGKATLTVDKSSSTAYMELRSLTSEDTAVYYCARLDSSGYGYYAMDYWGQGTSVTVSS
VL: DIVLTQSPASLAVSLGQRATISCRASESVDNYGISFMHWYQQKPGQPPKLLIYRASNLDSEIPARFSGSGSRTDFTLTIDPVETDDVATYYCQQSYKDPRTFGGGTKLEIK
B8: the binding result in experiment [1], in [2], in [4] and in [5] was “binds” each time.
